Results taken from patent US8829049B2, “Medicinal composition intended for the treatment of erectile dysfunction in mammals and use of the composition” (ACEF S.A., priority 2009, dated 2014).
Where a name gives a salt, the structure may show the parent alone. For at least one compound, name, drawing or mass did not settle the structure.

Tested on: Swiss mice
Experiment: vasodilating effect / penile erection test in Swiss mice, intraperitoneal administration, with penile histology
Assay type: in vivo
Conditions: Group I sildenafil citrate, Group III 20 mg/kg cubebin
Experimental: 42 Swiss mice have been used, adults, between 18 and 24 weeks old, weighing between 25 and 35 grams, from the Biotherium of the University of Franca (UNIFRAN), which were confined in plastic cages with metal fences and fed with standard feed (Labina-Purina) and water ad libitum, at room temperature of 22° C.
After a period of adaptation, the animals have been divided into seven groups, as per Table 1 below:
Animals from all groups have been kept under the same conditions for four hours for later evaluation of the studied pharmacological effect. They were subsequently anesthetized with a solution of 1.5 mg of ketamine plus 0.1 mg of xylazine and then euthanized to take off the penile tissue. Each sample was immediately stocked in 10% formaldehyde to make histological slides.

With `CCCc1nn(C)c2c(=O)[nH]c(-c3cc(S(=O)(=O)N4CCN(C)CC4)ccc3OCC)nc12` [sildenafil citrate] as the molecule, how does the “penile erection / sexual behaviour observed” value read?
Its value is “penile erection”.
